Assay results reported in patent US6426093B1, “Synergistic biocidal activity if ternary complexes of negatively-charged biocides (component A), transition metal ions (component B), and neutral chelators (component C)” (Yissum Research Development Company of the Hebrew …, priority 1998, dated 2002).
Some results were stated once for a whole list of compounds, not compound by compound. At least one structure is not confirmed: it was looked up by name or label, or the drawing left a doubt.

Tested on: E. coli
Experiment: E. coli inactivation, survival by colony-forming ability
Assay type: cell-based
Conditions: 30 minutes
Protocol: A sample of bacteria from the stock solution was diluted 100-fold in “reaction buffer” to a final concentration of 0.6 OD600 (4.8×10^6 cells/ml). Various agents were added to the bacteria following 15 minutes of preincubation at 37° C. Aliquots were removed at indicated time points into “termination buffer” to stop the reaction, and diluted by a factor of 50 to 10^6. Samples from each dilution were then plated on LB agar and grown overnight at 37° C. Each sample was plated at least five times. The colonies formed were then counted. Survival curves were evaluated from colony counts. Each experiment was repeated at least three times, and the mean values and standard error of triplicates were calculated.
In the experiments shown in FIG. 3, all the incubation mixtures contained glucose (0.5% w/v) and MgSO4 (1 mM) in HEPES buffer (10 mM, pH=7.4), and bacteria (4.8×10^6 cells/ml). The cells were exposed to the combination of PCP (0.5 mM) and Fe(OP)3 (5 μM)—designated open triangles; or with the addition of DMSO (5%)—designated closed triangles; or with SOD (50 U/ml)—designated open circles. The results presented in Table 1, which were obtained using the experimental conditions and methods described above in this example, show the effect of different concentrations of PCP and copper complex and their combinations on the inactivation of E. coli.

Oc1c(Cl)c(Cl)c(Cl)c(Cl)c1Cl [PCP, Pentachlorophenol]
survival (colony-forming ability) (PCP 0.5 mM alone): > 80%

[Fe+3].c1cnc2c(c1)ccc1cccnc12.c1cnc2c(c1)ccc1cccnc12.c1cnc2c(c1)ccc1cccnc12 [[Fe^III (OP)3]^3+complex, 1,10-phenanthroline-iron [Fe^III (OP)3]^3+complex]
survival (colony-forming ability) (complex 5 μM alone): > 80%
